Experimental data: CN116203146A
No constants are given. Whether binding was seen depends on the method and setting. Some entries that bind do so weakly or less than the wild type.

The chains behind the UniProt entries cited, without tags or fusion partners. Residues count along the entry.
UniProt Q8NHJ6, residues 22-259: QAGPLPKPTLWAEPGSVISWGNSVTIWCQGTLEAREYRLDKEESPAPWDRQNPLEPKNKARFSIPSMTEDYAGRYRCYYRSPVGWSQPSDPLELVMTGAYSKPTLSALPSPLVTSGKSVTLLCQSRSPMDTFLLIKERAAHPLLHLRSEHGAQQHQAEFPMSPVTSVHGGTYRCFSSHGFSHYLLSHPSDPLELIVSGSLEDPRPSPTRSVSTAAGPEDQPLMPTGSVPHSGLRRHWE

Target: LILRB4抗原 (人LILRB4蛋白胞外段) (human) (UniProt Q8NHJ6)
Test: phage ELISA on coated LILRB4

B1: MB-Ⅰ 噬菌体单克隆抗体 (phage-displayed single-chain antibody) (scFv, V domains shown)
VH: QVQLQESGAELVKPGASVKLSCKASGYTFTNYWMHWVKQRPGQGLEWIGEINPSNGRTNYNEKFKTKATLTVDKSSSTAYMQLSSLTSEDSAVYYCARWGQLGLREGYYAVDYWGQGTSVTVSS
VL: DIVMTQSPSSLSASLGDRVTISCRASQDISNYLNWYQQKPDGTVKLLIYYTSRLHSGVPSRFSGSGSGTDYSLTISNLEQEDIATYFCQQGNTLPPTFGGGTKLEIK
In the case of B1, the binding is reported as “binds”.

B2: MA-Ⅰ 噬菌体单克隆抗体 (phage-displayed single-chain antibody) (scFv, V domains shown)
VH: EVQLQQSGGGLVKPGGSLKLSCAASGFTFSSYTMSWVRQTPEKRLEWVATISSGGTYTYYPDSVKGRFTISRDNAKNTLYLQMSSLKSEDTAMYYCTRDGYDGFDYWGQGTTLTVSS
VL: DIVMTQTTLSLPVSPGDQASISCRSSQSLAHSNGNTYLHWYLQKPGQSPKLLIYKVSNRFSGVPDRFSGSGSGTDFTLKISRVEAEDLGVYFCSQSTLVPTFGGGTKLEIK
In the case of B2, the binding is reported as “binds”.
